According to patent US20200166512A1 (CENTRE NATIONAL DE LA RECHERCHE SCIENTIFIQUE, published 2020):
Results are given in words; binding and its absence hold for the method and conditions named. Some results given as binding are weak or reduced against the parent protein; the word gives no strength. Where no end group is shown, it is not given here.

Columns and labels:
[1] = molecular target: T1, mouse IL4I1 protein, recombinant or endogenous (mouse) (UniProt O09046); assay: flow cytometry on mouse splenocytes
T1 sequence (looked up): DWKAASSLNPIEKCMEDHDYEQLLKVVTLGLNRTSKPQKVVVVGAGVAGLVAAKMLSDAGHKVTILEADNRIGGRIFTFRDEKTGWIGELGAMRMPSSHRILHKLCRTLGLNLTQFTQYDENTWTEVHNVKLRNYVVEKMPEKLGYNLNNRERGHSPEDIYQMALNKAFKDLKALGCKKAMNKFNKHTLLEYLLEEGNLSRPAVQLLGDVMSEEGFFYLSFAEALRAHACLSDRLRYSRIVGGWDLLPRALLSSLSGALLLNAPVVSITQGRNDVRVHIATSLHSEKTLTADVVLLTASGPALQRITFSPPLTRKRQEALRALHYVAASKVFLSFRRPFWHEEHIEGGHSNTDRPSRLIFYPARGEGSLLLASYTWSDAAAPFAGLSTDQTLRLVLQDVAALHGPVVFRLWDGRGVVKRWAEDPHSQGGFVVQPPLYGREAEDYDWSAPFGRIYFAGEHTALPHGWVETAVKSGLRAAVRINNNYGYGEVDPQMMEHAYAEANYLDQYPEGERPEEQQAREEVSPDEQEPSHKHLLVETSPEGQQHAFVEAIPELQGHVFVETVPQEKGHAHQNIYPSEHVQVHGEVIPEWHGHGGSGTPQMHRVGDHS

[2] = molecular target: T1, mouse IL4I1 protein, recombinant or endogenous (mouse); assay: immunohistochemistry, mouse IL4I1
[3] = molecular target: T1, mouse IL4I1 protein, recombinant or endogenous (mouse); assay: single layer ELISA
[4] = molecular target: T1, mouse IL4I1 protein, recombinant or endogenous (mouse); assay: ELISA, mouse IL4I1
[5] = molecular target: T1, mouse IL4I1 protein, recombinant or endogenous (mouse); assay: immunohistochemistry on WT versus IL4I1 KO mouse spleens
[6] = molecular target: T1, mouse IL4I1 protein, recombinant or endogenous (mouse); assay: flow cytometry, mouse IL4I1

Measured: binding

B1: anti-IL4I1 antibody D-5 IgG/λ (rabbit monoclonal, clone D-5, hybridoma CNCM I-5355) (antibody, V domains shown)
VH: QQQLVESGGDLVKPEGSLTLTCTASGFSLSAGYFICWIRQAPGKGLEWIGSVFSGSSGTTYYASWAKGRFTISKTSSTTVTLQMTSLTAADTAIYFCARGGVLGGRVAYDNSFDHWGPGTLVTVSS
VL: ELVLTQSPSVSAALGASAKLTCTLSSAHSTYTIEWYQQQPGESPRYLMQLKSDGSYTKGTGVPDRFSGSSSGADRYLIIFSVQADDEADYYCGANYSSGYVFGGGTQLTVT
notes: Rabbit IgG/lambda from a hybridoma; It was used as hybridoma supernatant (clone D) or as purified IgG (subclone D-5); also called IgG D-5; AbD-5
binds: [1] | [2] | [3] | [4] | [5] | [6]
